Values from PubChem BioAssay AID1259308 (NCATS, 2017)

Purpose: 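Knock-downs that increase output of a recombinant reporter protein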 (primary screen)
Cell system: human HEK293 embryonic kidney cells stably expressing firefly luciferase (HEK-CMV-Luc2-Hygro)
Knock-down reagent: single siRNA against human genes, 0.8 pmol siRNA per well
Duration: 72 h
Detection: 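Reporter luminescence and viable-cell signal on separate replicate plates, given as percent of non-targeting control and median/MAD z-scores, plus per-cell luciferase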
Reading the numbers: total luciferase, z-score: higher = more reporter protein produced
Active means: 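Active when the median/MAD z-score for overall luciferase is greater than 3; a gene was taken forward for validation with new siRNAs if at least two of its three siRNAs passed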
Meaning of the calls: active = raised luciferase; inactive = no rise
The deposit covers about 59,000 reagents; below is a random part of them. About 1,510 of all reagents (2.6%) count as active. 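Calls use total luciferase alone and ignore viability, so some active siRNAs may act by altering cell number.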 Not all columns of the deposit are shown.

For RNF7 [SID160722619], what was measured?
total luciferase, z-score: 1.46; Call: inactive

With RNF7 [SID160722620], what was measured?
total luciferase, z-score: 2.44; Call: inactive

For RNF7 [SID160722621], what does the deposit list?
total luciferase, z-score: 4.01; Call: active

How did the screen score KLK11 [SID160729736]?
total luciferase, z-score: 0.777; Call: inactive

What did the screen give for KLK11 [SID160729737]?
total luciferase, z-score: 1.31; Call: inactive

For KLK11 [SID160729738], how do the results read?
total luciferase, z-score: 2.76; Call: inactive

For ZNF385B [SID160759054], what does the deposit list?
total luciferase, z-score: 1.91; Call: inactive

With ZNF385B [SID160759055], what does the deposit list?
total luciferase, z-score: 0.408; Call: inactive

With ZNF385B [SID160759057], what does the deposit list?
total luciferase, z-score: 0.607; Call: inactive

Which result is listed for ST7 [SID160719524]?
total luciferase, z-score: -0.472; Call: inactive

What is on record for ST7 [SID160719525]?
total luciferase, z-score: 2.56; Call: inactive

With ST7 [SID160719526], what does the deposit list?
total luciferase, z-score: 0.122; Call: inactive

What did the screen give for MTCL1 [SID160735848]?
total luciferase, z-score: -1.47; Call: inactive

With MTCL1 [SID160735849], what does the deposit list?
total luciferase, z-score: -0.0817; Call: inactive

With MTCL1 [SID160735850], what was measured?
total luciferase, z-score: 0.0683; Call: inactive

Which result is listed for CRP [SID160748333]?
total luciferase, z-score: -1.14; Call: inactive

How did the screen score CRP [SID160748344]?
total luciferase, z-score: 0.137; Call: inactive

For CRP [SID160748354], what does the deposit list?
total luciferase, z-score: 0.283; Call: inactive

With RAPSN [SID160715664], what was measured?
total luciferase, z-score: -0.106; Call: inactive

Which result is listed for RAPSN [SID160715665]?
total luciferase, z-score: -0.291; Call: inactive

How did the screen score RAPSN [SID160715666]?
total luciferase, z-score: -0.0389; Call: inactive

For LILRB1 [SID160729358], how do the results read?
total luciferase, z-score: -1.26; Call: inactive

For LILRB1 [SID160729359], what does the deposit list?
total luciferase, z-score: -0.771; Call: inactive

What is on record for LILRB1 [SID160729360]?
total luciferase, z-score: 3.41; Call: active

What is on record for DSN1 [SID160749896]?
total luciferase, z-score: 1.54; Call: inactive

What did the screen give for DSN1 [SID160749897]?
total luciferase, z-score: -0.497; Call: inactive

What is on record for DSN1 [SID160749898]?
total luciferase, z-score: -0.82; Call: inactive

For CEP290 [SID160750174], what does the deposit list?
total luciferase, z-score: -0.416; Call: inactive

For CEP290 [SID160750175], how do the results read?
total luciferase, z-score: -0.412; Call: inactive

For CEP290 [SID160750176], what was measured?
total luciferase, z-score: 0.586; Call: inactive

For UTS2R [SID160723799], what was measured?
total luciferase, z-score: -0.278; Call: inactive

What did the screen give for UTS2R [SID160723800]?
total luciferase, z-score: -0.211; Call: inactive

How did the screen score UTS2R [SID160723801]?
total luciferase, z-score: -1.21; Call: inactive

A portion from the list above, for reference:
CEP290 [SID160750174] — total luciferase, z-score = -0.416; Call = inactive
CEP290 [SID160750175] — total luciferase, z-score = -0.412; Call = inactive
